Article PMC11651612
No constants are given. Whether binding was seen depends on the method and setting. Binding seen in cells or lysates may run through a third protein. A yes stands for co-enrichment or nearness to the bait. Other partners may have been found.

T1: Cdc3-mCherry (C. neoformans) (UniProt J9VUF2)
T1 sequence: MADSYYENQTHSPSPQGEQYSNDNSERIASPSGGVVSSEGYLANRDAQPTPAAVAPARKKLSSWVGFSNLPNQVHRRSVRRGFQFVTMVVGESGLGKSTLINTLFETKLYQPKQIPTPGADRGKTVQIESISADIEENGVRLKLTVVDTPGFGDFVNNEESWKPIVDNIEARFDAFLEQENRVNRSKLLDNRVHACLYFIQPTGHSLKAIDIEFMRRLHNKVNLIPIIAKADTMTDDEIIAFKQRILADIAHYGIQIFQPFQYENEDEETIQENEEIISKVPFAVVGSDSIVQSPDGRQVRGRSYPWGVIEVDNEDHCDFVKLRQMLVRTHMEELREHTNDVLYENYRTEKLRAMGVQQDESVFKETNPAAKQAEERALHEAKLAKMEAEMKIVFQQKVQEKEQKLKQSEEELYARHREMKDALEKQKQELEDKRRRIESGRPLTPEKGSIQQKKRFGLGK

T2: Cdc10-mCherry (C. neoformans) (UniProt J9VMT9)
T2 sequence: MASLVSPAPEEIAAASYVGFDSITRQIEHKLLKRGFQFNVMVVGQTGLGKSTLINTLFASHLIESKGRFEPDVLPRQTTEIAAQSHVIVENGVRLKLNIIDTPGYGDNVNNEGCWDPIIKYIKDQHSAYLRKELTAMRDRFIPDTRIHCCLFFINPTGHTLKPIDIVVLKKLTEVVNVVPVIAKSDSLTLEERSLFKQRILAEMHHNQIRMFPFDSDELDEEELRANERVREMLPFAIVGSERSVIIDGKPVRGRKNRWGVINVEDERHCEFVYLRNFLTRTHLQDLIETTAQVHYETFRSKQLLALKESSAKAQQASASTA

B1: E3 ubiquitin-protein ligase PEP5 (protein, UniProt J9W0X0 1-1071)
chain: MALSPSHAGQPAPQWRQFTFFDVENVKDEQDLAQSPRAIRQLTPPVAVTTTAPKSPLSPSLIVSSSRNISILDKHFSVERSFTAWEQNGRATFLLEAGGLLVAIGEEEGSLWPLLKVWDLTKEDKKSSERRPVLLRSVRIQHGQRPHPVSSVALTSNLSHLAIGLGDGTVLLYRHFLQSLTTSSYLTSLPKARVVHESHEPVTGLGFREHPPTDKSTPSRSSSSHGFSLFIVTTNRVLSAPVNGKGEARTIDDVGCALGCATMDSQRKEMVVARDEAIYLYGPDGRGACLAYEGPKSSITVYSHNLIITSPPFYPSVASASATVRHYAKSTPNGELGSPDTAKITIFDLDNKVIGYSGTYNEGVRDVFCQWGGIYVYGGNGKLCRLDEQSTQAKLETLYRRNLYTLAITMARSQGLGEAGIADIHRRYGDYLYSKGDFDGAMGQFVKTLGSLQPSYVIRKFLDAQRIHNLTTYLQELHSRGLANPDHTTLLLNCYTKTSDRARLDQFIRTEARRSSSPAPGTGAVGREGELPFDLDTAIRVCRQAGFYEHAAYLAKKFDKHEDYLRIQIEDAGKVDEALRYLRGLGPKACEVNMARYGRTLLQHEPEATTELLIDLCSGNLGRKKAVREVDGKTDGITSGSGVNGSGPAMLSYLGYNKVTGFLSGDTPSGATVSEDEKPTGAHDGLDAAKVGEDEKEDVTPSYIPASPRQYFAHFVDHRELFIHFLESVALNLWNQKIDPSFSNSSAVSAPKRDMDSPPPTDPTIIDQTAVWNTLIELYLSSSAEESKRKALALINSDSTPYDPMHALVLCSSVGFTEGMLRLWEGMGMYEDVLRYYMEEGQEAEDAQGITPSNKVFTHLEMYGPSHPHLYPLVLRYLTSSPAILTRHKGELSKILAKIDEYQIMPPLGVVQLLSRNGVVDVGSVKEWLRGKVEENEEEIESDKHLYDSYRSETAAKRKAILDRSNVSQPEIFQVTKCAACGGQLDLPSVHFMCKHSYHQRCLPDSDPECPICARQHSVIRELRRNQLRLADRHDLFLEEVHQAEDGFNVVADAFGRGLFRREEVDERIEA
B2: Symplekin (protein, UniProt J9VRR8 1-1054)
chain: MSLYADDDPTKALQLTDEQPTLQPPTDPQQALNAALALDSESPEQQEGLQNAALRFEEHPERLPEVIPRLLGLITEGGDSLLRFWTLDMIALTVGRSGLMLDVKLHVAQYCLTALNKLLHSNSVPTIKAVIPILSTIYPILFRLLATSRPSQQVLDLFNVVKSKIISFALDPNARPFNVGIKAVAWKFVQRVLLAATKAAGSDPRLPQRGAGSNDVNVSHIVPNGCLSASDIEKEGTVLQTQLVTHLYSSSDPAILHPLINTLPAIAKMRPTLAPLVVHSLASWTPSALVAAGRSAMEIRAVDKTVRIAISHLLRHPPLSAHAAQLNDALVRQKARMEAAFLGEASARKERRQNLKHTIDPEAAFEAESSEQAAKRARLDGLVGVGSGMGKGPEIDVSGMRLEEVVEVVLSSLRGVSLELLTGTIESAKRALQENSTDAQPLLAAALGISSVVKEEEEEEILNPLDMEDDDDDLLMDGPEPLMEEEEPTSFTDFVLPAPEPLESSDKEFIFSDTIERIWQTGADLAGLPDPKDSDATKLAVKPKEMWMLLLARLATRGADVKRKVICDFVIADFANRSKFASVWLNEEWYNEKIGISSPGQYLSNLEAIVTAYLPKVDSKDKSLSTFILTLPAIPPSLISTLETICQEPERALVGFLALRDIVEVRPPVRPQALQTLLELCTHPDRKIRVMAIITTVRRWGNDSPMMPFLTRYALGVLWRLANNDVKNEDVDMEEGEQADEKIQSKFLGEPSADNVQQHVELAFALAKRKQDLLDDIFRLYPRLEPAVQDVVEAQLMPLIQSLGATEKLLEILRKFPNGADKLVMRVVGVLSAEGSKTLVTLMKTLLSERDLDPRFVIPIVGDLDKTEIEKQLPRIVSLLGDVDSKDMVKTAFASMLQKMTPSDLMVALHQEGAPLKLTIEAIGICFSMTTVFRSDVLANAMSRIADLPTIPLIFVRTIIQVVTTYKSLAPFIANHILPKLVTKKIWEIPQLWDGFIMLAKRIAPASFGALLQLPKEQLKEVVEKQPGLKSGLKGFLANKPGSKAAMAEIFGDD
B3: Malate synthase (protein, UniProt J9W232 1-538)
chain: MSLPQGIYLTAPIPKGGEHILSTEALEFLAVLHRTFNKRRLELLKNREKVQAELDQGKPLSFLPETREIRENLAWSCAPPGPGLEDRRVEITGPTDRKMVVNALNSGAKTFMADFEDSNSPTWSNMVLGQVNLYDAIRRQIDFEINGKAYKLSEKPAVLLVRPRGWHLPEPRLIIDGTPMSGSLFDFGLYFFHNARELISRGSGPYFYLPKMEHHLEARLWNDAFCLATSHLGVQQGVIRATVLIETLPAAFQMEEILYELKEHSAGLNCGRWDYIFSFIKKQRAHKNCVFPDRSDVTMTVPFMDAYVRLLIQTCHKRKVAAMGGMSAQIPIKNDPAANERAMSKVRADKLREVTAGHDGTWVAHPALISIALEIFNQHMPGPNQYHIRREDVTVTDKQIADPSVPGKITEQGLRDNVSAALSYCAAWISGNGCVPINHLMEDAATAEIARVQLWQWCKYGSKTDSGKDINPSYVQTILSEEASKVSKLPGIDPSHVKIASEYMAQQVKAEWPSDFLTSDLLGHLEGVGTKGGAKASL
B4: Profilin (protein, UniProt J9VJD3 1-127)
chain: MSWQAYVDDHLVATGKVKKAAILGKQGGVWAASPGYNLSQQEQNAITQTYFQQPDSVRANGITLNGFKFMCIQATPEEVIGRKGERGVFVIPTNQAILVAEYDAPTSAGEANVVVAKLADWLKSASY
B5: Pre-mRNA cleavage complex 2 protein Pcf11 (protein, UniProt J9VKW5 1-611)
chain: MAYPAYPAYQQAPYYPPPPVQPTTDVFRRQYADRLRALTFNSRPIIQDLSMLAMAARDRNDWNGMQAVVEEIELAVLRALPQQKLPLLYLLDSISKNVGPPYTTRLLQAIVPRLYIKTYREVDGVTKTKMEEMIGLWRTGGPGGSELYGSHVREQVERELFGSAGIQNFKAPNRQQVQVLLNAALDNKRREVAMRPGDVVLGRQLNALLGIGELLSTTNVQPQELSMIVEQLKSMAPPSVAPTPTQASVTPSWGPTPSVNDSTPSNLPPFPPKLPAVNGNGYTNAALPPFPSNIPTPLETISTAPMTSSQTPISGNQRSSTPAMAPASLAPVPSIVPSVPSLPVDVARILQTLNKSGIGSQPQTPDVERGTPGPNMVATTEAYEDMILRLDIKLQSIDLNAHHKLSFAHLSHRCQQCGMRFPSANAAFDAHMDWHFRRNKKERESGGRGAHRRWLPRVEQWVSDAITLPSTAASSSQTEKATVSAERLAQLRQKWVKVPQDSKKAASVCPVCKEAFRAEWSDSEEEWIWKNALAINGVFYHATCRAEQTSALKRLKAADPNRRTSSSASPRTTPSNEGLKPEAQKRKVEGMDVEHEEGSKRVKVEDIVDDI
B6: Glutathione S-transferase (protein, UniProt J9W1V7 1-330)
chain: MPTSANRIHNNADEKGNFNRQVSSFRDAIQPGGQFPPEKGRYHLYVAFGCPWAHRSLIVRRLKGLEDFIDISIVHPHLHEGGWHFVTPEAAAHPAPVSEHPDTSFPGATQDHLFGFSHLSKIYYKANPDYNARFTVPVVWDKITGTIVNNESSEVIRFFNSAFNELLPEGKGKDLDLYPEELRGEIDELNEWVYHDINNGVYKTGFATTQEAYEKAVIPLGKALERINERLSDGREFLVGGRLTEADVRLYTTIVRYDPVYHSHFKCNTGLIRHDYPHINRWLKNLYWNYPAFKDTTNFDHIKDGYWYSQINLNPTRIVPIGPKHNVEPL
B7: DASH complex subunit Duo1 (protein, UniProt J9VJS2 1-431)
chain: MDSPLLPTLSRSNYSVDEGNNGDASLSLADLSIASDGPDGLSPLPPPRQLSQHGQSQIKSLYAQGSGYIGASGGAGTESSVMLGSTSTRENIPPTAISNDLKGGAGTSAAGKPRFSLFAPSRQAYEDDDRQSVMEEEDDKRTSAIEDRDDVTISNEGYGREEGGDTEGEEEDEERVRPQEHSRQRDSDGETKLRESLYELRKFNEVFEGFIGSLEGVKGHNERLAERVQQTSLLLDEYTAILGQAEHTQRLLLNPRWTGSSDDAAAITAEEQARAAAAAKALEEAQAAAEAARAAEEQARKSAERERAQGEVRTRGAGTRGRGTIRGSGLSRGSRLARGGSGSVRGGSGLARGGGLARGGSELVRGGSELVRGGSGLIRGRGAGTVVTKSSVAPPRPESATTSSATRRGGSTGTAGRYSHVKSSGYGPRQT

Target: T1, Cdc3-mCherry (C. neoformans)
Experiment: affinity purification with mass spectrometry; mCherry-tagged septin captured from C. neoformans lysate on RFP-Trap agarose, 4 h at 4°C, washed with TBS with 2 M urea pH 7.5; GeLC-MS/MS; untagged H99 as negative control; hits logFC >2 and adjusted p <0.001 (text-named hits <0.05); exponential cultures at ~25°C or shifted to 37°C for 2 h; N = 5

Row | Binder | binding
1 | B1 | binds
2 | B2 | binds
3 | B3 | binds
4 | B4 | binds
5 | B5 | binds
6 | B6 | binds
7 | B7 | binds

Target: T2, Cdc10-mCherry (C. neoformans)
Experiment: as above

Row | Binder | binding
8 | B1 | binds
9 | B2 | binds
10 | B3 | binds
11 | B4 | binds
12 | B5 | binds
13 | B6 | binds
14 | B7 | binds
